Results published in US20170189504A1, “NOVEL PEPTIDES AND COMBINATION OF PEPTIDES FOR USE IN IMMUNOTHERAPY AGAINST VARIOUS CANCERS” (immatics biotechnologies GmbH, priority 2015, published 2017).

Legend:
HLA-A*02 = experiment: Identification and relative LC-MS quantitation of HLA-A*02-presented tumor-associated peptides on tissue samples (presentation profiles, Tables 13A, 13B, 15, FIG. 1); set-up: species or system human; key to Presentation score NHL / Presentation score CLL / Presentation score BRCA / Presentation score AML / Presentation score GB / Presentation score NSCLC / Presentation score GBC_CCC / Presentation score UEC / Presentation score MEL / Presentation score OSCAR / Presentation score GC / Presentation score UBC / Presentation score OC / Presentation score RCC / Presentation score CRC / Presentation score PCA / Presentation score HCC / Presentation score PC / Presentation score SCLC: specifically presented on tumors (++++); very highly over-presented on tumors compared to a panel of normal tissues (+++); highly over-presented on tumors compared to a panel of normal tissues (++); over-presented on tumors compared to a panel of normal tissues (+); details: for Presentation score PCA: prostate cancer and benign prostate hyperplasia (N = 39) vs panel of normal tissues (N = 262); for Peptide Presentation on cancer entities: Table 13A, HLA-A*02-binding tumor-associated peptides, cancer entities on which the peptide was found presented
source genes (mRNA) [1] = experiment: Gene and exon expression of source genes, TCGA tumor samples compared with normal tissue samples (Lonsdale, 2013) (Table 17); set-up: species or system human; details: for Over-expression category of source gene (target coverage), LIHC: LIHC = Liver hepatocellular carcinoma (N = 374); for Over-expression category of source gene (target coverage), LUAD: LUAD = Lung adenocarcinoma (N = 517); for Over-expression category of source gene (target coverage), PRAD: PRAD = Prostate adenocarcinoma (N = 498)
source genes (mRNA) [2] = experiment: Expression profiling of source genes by in-house RNASeq of tumor and normal tissues (Table 18, FIG. 2); set-up: species or system human; key: very highly over-expressed in tumors compared to a panel of normal tissues (+++); highly over-expressed in tumors compared to a panel of normal tissues (++); over-expressed in tumors compared to a panel of normal tissues (+); details: source gene of peptide; for Expression score HCC: hepatocellular carcinoma (N = 15) vs panel of normal tissues

Substance | Presentation score PCA (HLA-A*02; HLA-A*02 peptides) | Peptide Presentation on cancer entities (HLA-A*02) | Over-expression category of source gene (target coverage), CHOL (source genes (mRNA) [1]; CHOL = Cholangiocarcinoma (N = 36), same cutoff) | Over-expression category of source gene (target coverage), GBM (source genes (mRNA) [1]; GBM = Glioblastoma multiforme (N = 169), same cutoff) | Over-expression category of source gene (target coverage), KIRP (source genes (mRNA) [1]; KIRP = Papillary kidney carcinoma (N = 291), same cutoff) | Over-expression category of source gene (target coverage), LIHC (source genes (mRNA) [1]; same cutoff) | Over-expression category of source gene (target coverage), LUAD (source genes (mRNA) [1]; same cutoff) | Over-expression category of source gene (target coverage), PRAD (source genes (mRNA) [1]; same cutoff) | Over-expression category of source gene (target coverage), SKCM (source genes (mRNA) [1]; SKCM = Skin cutaneous melanoma (N = 473), same cutoff) | Expression score GB (source genes (mRNA) [2]; glioblastoma (N = 24) vs panel of normal tissues) | Expression score HCC (source genes (mRNA) [2]) | Expression score PC (source genes (mRNA) [2]; pancreatic cancer (N = 26) vs panel of normal tissues) | Expression score PCA (source genes (mRNA) [2]; prostate cancer and benign prostate hyperplasia (N = 5) vs panel of normal tissues) | Expression score SCLC (source genes (mRNA) [2]; small cell lung cancer (N = 10) vs panel of normal tissues) | Expression score UEC (source genes (mRNA) [2]; uterine cancer (N = 10) vs panel of normal tissues) | Presentation score UEC (HLA-A*02; HLA-A*02 peptides, uterine cancer (N = 15) vs panel of normal tissues (N = 262)) | Over-expression category of source gene (target coverage), BRCA (source genes (mRNA) [1]; BRCA = Breast cancer (N = 1104), tumors more than 2-fold above highest 75% percentile of normal tissues) | Over-expression category of source gene (target coverage), KICH (source genes (mRNA) [1]; KICH = Kidney chromophobe (N = 66), same cutoff) | Over-expression category of source gene (target coverage), KIRC (source genes (mRNA) [1]; KIRC = Clear cell kidney carcinoma (N = 534), same cutoff)
294: peptide found in TRPM8 (gene looked up) (GLMKYIGEV; listed as Homo sapiens) [compound 294] | ++++ | PCA | C (>=5% of tumors above the cutoff, but <20%) | C (>=5% of tumors above the cutoff, but <20%) | C (>=5% of tumors above the cutoff, but <20%) | B (>= 20% of tumors above the cutoff, but <50%) | C (>=5% of tumors above the cutoff, but <20%) | A (>=50% of tumors above the cutoff) | C (>=5% of tumors above the cutoff, but <20%) | +++ | ++ | + | +++ | +++ | + |  |  |  | 
146: peptide found in RORC (gene looked up) (ALHFSEDEI; listed as Homo sapiens) [compound 146] | +++ | PCA, UEC |  |  |  | B (>= 20% of tumors above the cutoff, but <50%) | C (>=5% of tumors above the cutoff, but <20%) | B (>= 20% of tumors above the cutoff, but <50%) |  |  | + |  |  |  |  | + | C (>=5% of tumors above the cutoff, but <20%) | B (>= 20% of tumors above the cutoff, but <50%) | C (>=5% of tumors above the cutoff, but <20%)

For some of these results: Expression values are those of the mRNA of the gene that encodes the peptide; a gene is named only where it was looked up.
